Data from the supplement of paper PMC6411743.
± gives the standard deviation of the averaged measurements. Only a part is listed here, and it is no random draw.

Amino acid sequences for entries named in this document (tags omitted). A change or cut given only in a name is not applied to a line headed by its entry.
UniProt P35611: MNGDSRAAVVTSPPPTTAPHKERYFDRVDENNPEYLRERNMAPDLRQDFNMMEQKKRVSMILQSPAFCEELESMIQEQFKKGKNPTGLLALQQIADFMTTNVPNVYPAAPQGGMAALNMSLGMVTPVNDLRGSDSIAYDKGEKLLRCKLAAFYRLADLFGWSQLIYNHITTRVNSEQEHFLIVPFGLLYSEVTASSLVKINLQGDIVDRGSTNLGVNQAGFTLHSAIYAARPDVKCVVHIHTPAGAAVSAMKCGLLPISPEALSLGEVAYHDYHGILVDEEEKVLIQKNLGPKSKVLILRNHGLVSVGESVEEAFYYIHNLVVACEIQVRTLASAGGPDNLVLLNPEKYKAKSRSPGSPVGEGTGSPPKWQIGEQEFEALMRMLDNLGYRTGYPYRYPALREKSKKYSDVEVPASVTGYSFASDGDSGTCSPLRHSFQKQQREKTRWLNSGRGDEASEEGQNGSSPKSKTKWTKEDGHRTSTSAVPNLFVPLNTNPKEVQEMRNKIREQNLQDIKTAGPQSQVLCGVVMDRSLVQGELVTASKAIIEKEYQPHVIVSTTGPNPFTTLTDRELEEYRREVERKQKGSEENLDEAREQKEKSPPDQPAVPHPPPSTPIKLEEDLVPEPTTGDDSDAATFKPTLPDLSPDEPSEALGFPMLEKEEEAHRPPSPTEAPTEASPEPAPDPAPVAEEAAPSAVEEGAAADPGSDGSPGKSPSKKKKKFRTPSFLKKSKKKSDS
UniProt P31321, whole entry: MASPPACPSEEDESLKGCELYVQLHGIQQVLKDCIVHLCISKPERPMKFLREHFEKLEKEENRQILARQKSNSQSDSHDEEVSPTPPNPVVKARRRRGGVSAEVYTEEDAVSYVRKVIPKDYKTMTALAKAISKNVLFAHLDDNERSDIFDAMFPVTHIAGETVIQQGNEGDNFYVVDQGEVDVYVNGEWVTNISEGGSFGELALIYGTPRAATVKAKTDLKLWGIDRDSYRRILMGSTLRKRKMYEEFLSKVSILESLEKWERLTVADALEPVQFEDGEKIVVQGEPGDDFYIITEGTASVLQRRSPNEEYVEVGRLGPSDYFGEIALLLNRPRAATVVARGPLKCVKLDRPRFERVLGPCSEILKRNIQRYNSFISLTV
UniProt P39880: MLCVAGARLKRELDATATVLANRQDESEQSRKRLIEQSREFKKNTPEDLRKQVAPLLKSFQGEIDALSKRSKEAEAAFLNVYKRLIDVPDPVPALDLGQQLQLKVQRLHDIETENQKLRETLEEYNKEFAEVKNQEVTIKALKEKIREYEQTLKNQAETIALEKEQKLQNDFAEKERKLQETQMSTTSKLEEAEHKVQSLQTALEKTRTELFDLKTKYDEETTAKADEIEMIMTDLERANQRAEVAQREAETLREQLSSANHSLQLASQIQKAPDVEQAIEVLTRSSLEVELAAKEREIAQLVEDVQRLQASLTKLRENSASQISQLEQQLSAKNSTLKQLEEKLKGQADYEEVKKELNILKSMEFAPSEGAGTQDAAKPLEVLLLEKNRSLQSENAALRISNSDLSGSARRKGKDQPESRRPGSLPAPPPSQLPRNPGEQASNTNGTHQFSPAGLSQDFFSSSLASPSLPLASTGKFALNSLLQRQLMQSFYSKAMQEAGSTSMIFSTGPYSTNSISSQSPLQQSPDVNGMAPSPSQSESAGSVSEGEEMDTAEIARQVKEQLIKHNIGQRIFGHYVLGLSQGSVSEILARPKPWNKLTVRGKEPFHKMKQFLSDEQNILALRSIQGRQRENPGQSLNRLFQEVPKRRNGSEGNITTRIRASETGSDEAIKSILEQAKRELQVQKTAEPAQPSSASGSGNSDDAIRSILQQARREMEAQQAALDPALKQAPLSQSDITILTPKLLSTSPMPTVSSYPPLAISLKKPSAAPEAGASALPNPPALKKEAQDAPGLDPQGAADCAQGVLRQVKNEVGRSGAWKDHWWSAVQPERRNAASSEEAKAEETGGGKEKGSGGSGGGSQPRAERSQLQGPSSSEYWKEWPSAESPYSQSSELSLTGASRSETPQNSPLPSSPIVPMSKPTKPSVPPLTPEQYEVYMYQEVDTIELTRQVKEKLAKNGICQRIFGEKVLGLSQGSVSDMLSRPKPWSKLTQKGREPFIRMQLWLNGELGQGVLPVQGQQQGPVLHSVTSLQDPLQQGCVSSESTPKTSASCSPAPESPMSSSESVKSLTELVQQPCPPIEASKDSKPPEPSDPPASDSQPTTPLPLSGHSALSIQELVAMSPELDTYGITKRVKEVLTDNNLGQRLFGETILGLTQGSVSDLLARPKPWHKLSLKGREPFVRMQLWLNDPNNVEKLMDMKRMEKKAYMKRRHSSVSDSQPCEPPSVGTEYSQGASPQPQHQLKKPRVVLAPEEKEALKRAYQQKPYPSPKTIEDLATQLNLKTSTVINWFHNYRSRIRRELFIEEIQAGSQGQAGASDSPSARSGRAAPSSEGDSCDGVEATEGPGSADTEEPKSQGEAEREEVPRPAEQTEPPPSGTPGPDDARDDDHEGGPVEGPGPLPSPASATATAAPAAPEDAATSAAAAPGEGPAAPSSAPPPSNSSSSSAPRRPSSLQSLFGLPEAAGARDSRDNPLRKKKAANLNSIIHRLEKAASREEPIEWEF
UniProt Q13948: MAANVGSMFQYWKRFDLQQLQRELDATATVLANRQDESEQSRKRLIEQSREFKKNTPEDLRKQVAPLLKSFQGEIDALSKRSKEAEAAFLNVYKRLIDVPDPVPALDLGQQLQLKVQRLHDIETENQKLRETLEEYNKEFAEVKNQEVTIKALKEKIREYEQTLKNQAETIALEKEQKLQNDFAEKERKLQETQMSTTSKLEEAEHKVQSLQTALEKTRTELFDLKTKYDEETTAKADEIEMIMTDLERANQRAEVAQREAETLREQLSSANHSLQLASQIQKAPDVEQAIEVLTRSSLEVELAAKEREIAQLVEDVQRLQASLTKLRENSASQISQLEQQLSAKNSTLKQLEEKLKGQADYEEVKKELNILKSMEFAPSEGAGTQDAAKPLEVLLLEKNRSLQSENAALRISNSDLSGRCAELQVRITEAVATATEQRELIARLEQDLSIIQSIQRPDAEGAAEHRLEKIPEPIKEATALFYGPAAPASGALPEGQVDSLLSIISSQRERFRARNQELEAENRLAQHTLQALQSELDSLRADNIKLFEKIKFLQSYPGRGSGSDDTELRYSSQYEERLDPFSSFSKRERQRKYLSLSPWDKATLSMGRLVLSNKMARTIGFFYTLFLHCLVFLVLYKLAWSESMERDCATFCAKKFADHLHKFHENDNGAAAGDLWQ
UniProt P23458: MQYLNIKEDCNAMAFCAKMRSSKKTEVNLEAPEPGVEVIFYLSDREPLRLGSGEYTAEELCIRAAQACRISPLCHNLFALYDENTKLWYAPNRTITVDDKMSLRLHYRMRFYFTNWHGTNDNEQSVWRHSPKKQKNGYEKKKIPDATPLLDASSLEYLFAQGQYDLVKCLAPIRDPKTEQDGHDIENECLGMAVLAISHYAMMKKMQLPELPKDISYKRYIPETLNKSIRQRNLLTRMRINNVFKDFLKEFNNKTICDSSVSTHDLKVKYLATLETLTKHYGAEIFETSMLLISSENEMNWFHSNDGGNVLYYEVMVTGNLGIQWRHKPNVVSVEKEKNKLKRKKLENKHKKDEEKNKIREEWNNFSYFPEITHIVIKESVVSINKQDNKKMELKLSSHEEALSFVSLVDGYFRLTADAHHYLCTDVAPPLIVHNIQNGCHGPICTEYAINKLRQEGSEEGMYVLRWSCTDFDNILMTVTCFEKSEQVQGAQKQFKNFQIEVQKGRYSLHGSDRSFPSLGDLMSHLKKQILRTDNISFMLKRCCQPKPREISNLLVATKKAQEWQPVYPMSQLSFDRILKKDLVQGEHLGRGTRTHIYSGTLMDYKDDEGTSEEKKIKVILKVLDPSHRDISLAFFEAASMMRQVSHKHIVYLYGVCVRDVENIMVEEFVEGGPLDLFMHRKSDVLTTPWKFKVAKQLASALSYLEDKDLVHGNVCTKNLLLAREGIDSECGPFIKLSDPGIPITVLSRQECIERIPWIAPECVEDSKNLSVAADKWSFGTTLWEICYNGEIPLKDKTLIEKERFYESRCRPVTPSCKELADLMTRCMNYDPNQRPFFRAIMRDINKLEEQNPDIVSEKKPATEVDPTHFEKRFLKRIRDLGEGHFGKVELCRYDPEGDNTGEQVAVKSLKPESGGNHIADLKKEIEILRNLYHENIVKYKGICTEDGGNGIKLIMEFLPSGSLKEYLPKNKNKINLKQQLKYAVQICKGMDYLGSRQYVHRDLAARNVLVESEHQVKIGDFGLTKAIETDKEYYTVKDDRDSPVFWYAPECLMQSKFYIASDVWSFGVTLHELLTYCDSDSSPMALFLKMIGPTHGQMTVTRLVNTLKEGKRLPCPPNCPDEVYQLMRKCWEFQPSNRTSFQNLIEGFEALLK
UniProt P28072: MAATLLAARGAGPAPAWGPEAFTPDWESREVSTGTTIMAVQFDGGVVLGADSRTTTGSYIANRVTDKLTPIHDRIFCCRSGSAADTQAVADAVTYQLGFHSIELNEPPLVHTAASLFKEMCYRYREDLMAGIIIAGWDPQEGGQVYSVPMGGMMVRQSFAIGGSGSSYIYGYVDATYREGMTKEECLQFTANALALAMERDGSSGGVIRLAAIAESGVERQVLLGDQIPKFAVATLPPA
UniProt P23634: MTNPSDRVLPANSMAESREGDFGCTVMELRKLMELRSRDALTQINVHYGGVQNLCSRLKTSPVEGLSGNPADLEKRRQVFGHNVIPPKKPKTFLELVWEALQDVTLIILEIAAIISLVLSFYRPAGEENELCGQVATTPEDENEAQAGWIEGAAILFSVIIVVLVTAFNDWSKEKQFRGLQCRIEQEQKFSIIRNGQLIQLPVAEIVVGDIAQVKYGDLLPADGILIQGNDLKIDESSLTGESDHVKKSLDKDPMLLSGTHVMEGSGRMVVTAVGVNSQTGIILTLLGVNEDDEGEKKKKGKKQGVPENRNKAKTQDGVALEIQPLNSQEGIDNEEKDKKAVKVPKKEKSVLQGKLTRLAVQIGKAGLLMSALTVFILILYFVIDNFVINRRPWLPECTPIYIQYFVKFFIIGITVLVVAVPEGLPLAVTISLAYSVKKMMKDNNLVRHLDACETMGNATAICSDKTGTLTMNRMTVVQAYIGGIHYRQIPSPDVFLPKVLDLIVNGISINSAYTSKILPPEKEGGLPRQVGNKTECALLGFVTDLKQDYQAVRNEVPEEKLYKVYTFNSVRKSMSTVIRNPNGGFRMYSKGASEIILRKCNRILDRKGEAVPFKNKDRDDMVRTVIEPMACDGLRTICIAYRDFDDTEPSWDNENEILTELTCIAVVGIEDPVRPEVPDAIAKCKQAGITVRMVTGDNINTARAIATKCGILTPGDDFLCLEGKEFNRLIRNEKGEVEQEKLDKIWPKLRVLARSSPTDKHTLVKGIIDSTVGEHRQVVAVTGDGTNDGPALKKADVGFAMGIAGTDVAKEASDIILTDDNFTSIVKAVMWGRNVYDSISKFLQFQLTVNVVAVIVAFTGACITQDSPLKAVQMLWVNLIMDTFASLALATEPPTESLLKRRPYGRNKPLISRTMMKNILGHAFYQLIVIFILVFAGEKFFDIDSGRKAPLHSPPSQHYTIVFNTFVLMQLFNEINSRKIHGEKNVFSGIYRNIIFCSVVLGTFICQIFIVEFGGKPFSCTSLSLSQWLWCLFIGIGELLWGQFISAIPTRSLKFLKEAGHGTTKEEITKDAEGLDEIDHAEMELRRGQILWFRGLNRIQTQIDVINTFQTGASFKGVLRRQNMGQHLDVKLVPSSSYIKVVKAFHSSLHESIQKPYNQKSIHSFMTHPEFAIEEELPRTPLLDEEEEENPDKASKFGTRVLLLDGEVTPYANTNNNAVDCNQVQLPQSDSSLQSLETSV
UniProt P26196: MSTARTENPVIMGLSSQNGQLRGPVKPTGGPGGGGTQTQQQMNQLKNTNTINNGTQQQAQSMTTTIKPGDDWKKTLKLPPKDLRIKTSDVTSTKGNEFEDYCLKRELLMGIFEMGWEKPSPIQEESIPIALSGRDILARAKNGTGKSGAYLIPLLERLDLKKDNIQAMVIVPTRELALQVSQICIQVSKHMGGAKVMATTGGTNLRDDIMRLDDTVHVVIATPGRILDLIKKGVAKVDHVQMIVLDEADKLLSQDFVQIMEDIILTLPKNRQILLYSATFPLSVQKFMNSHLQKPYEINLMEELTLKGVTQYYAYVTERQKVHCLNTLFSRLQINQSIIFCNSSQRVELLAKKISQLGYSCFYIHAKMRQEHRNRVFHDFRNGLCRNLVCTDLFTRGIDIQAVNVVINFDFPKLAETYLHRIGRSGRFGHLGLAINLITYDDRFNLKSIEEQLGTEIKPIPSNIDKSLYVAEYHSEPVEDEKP
UniProt P32321: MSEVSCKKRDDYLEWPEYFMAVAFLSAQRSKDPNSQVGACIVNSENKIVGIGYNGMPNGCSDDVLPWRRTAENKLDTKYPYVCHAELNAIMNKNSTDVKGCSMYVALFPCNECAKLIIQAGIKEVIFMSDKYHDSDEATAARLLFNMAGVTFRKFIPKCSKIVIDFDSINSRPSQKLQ

Compound: Nc1ncnc2c1ncn2[C@@H]1O[C@H](COP(=O)(O)OP(=O)(O)NP(=O)(O)O)[C@@H](O)[C@H]1O [adenylyl imidodiphosphate]
Assay: NP40-soluble protein abundance relative to vehicle (solubility fold change) (ratio); higher = more soluble protein in presence of AMP-PNP
Procedure, shortened: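 In three independent experiments, Jurkat crude lysate made by Dounce homogenisation was treated for 10 min at room temperature and then 3 min at 37 °C with eight concentrations ranging from 0.1 to 10 mM. It was then solubilised with 0.8% NP40 plus benzonase for 60 min at 4 °C and ultracentrifuged. The supernatant was TMT-labelled for LC-MS/MS, and each value is the fold change against the detergent-processed vehicle for the same replicate, using vsn-normalised intensities.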

Target	NP40-soluble protein abundance (concentration: 1mM)	NP40-soluble protein abundance (concentration: 2mM)	NP40-soluble protein abundance (concentration: 4mM)	NP40-soluble protein abundance (concentration: 6mM)	NP40-soluble protein abundance (concentration: 8mM)	NP40-soluble protein abundance (concentration: 10mM)
XPA (UniProt P23025)	0.9965 ± 0.0067	0.991 ± 0.027	1.02 ± 0.022	0.981 ± 0.044	1.01 ± 0.015	1 ± 0.034
MCM7 (UniProt P33993)	0.944 ± 0.017	0.867 ± 0.089	0.931 ± 0.043	0.922 ± 0.017	0.949 ± 0.025	0.909 ± 0.067
RPL7 (UniProt P18124)	0.966 ± 0.094	0.953 ± 0.039	0.962 ± 0.07	0.895 ± 0.056	0.902 ± 0.097	0.985 ± 0.024
UniProt P33316 and related entries	0.99 ± 0.026	1 ± 0.013	0.981 ± 0.015	0.993 ± 0.011	0.99 ± 0.016	0.972 ± 0.028
UniProt P18583 and related entries	1.03 ± 0.062	1.1 ± 0.0088	1.07 ± 0.087	1.05 ± 0.091	1.01 ± 0.06	1.14 ± 0.11
PRKCH (UniProt P24723)	1.01 ± 0.025	0.977 ± 0.037	1.04 ± 0.016	1.04 ± 0.067	1.06 ± 0.03	1.05 ± 0.025
UniProt P35611 and related entries	0.995 ± 0.043	0.99 ± 0.034	0.999 ± 0.033	1 ± 0.014	1 ± 0.041	0.992 ± 0.039
UniProt P17612	0.9057 ± 0.0056	0.869 ± 0.082	0.882 ± 0.036	0.882 ± 0.043	0.886 ± 0.026	0.844 ± 0.05
IL2RG (UniProt P31785)	1.01 ± 0.027	1.02 ± 0.063	1.01 ± 0.031	1.01 ± 0.03	0.998 ± 0.015	1.01 ± 0.018
EIF4A3 (UniProt P38919)	0.908 ± 0.065	0.763 ± 0.11	0.9 ± 0.085	0.986 ± 0.12	1.06 ± 0.092	0.947 ± 0.079
UniProt P28799 and related entries	1.04 ± 0.03	1.09 ± 0.024	1.04 ± 0.035	0.999 ± 0.026	1.02 ± 0.034	1 ± 0.028
UniProt P29016	0.961 ± 0.07	0.988 ± 0.036	0.989 ± 0.039	0.975 ± 0.051	0.997 ± 0.057	0.994 ± 0.075
STOM (UniProt P27105)	0.984 ± 0.012	0.977 ± 0.03	0.962 ± 0.026	0.99 ± 0.03	0.973 ± 0.024	0.948 ± 0.045
ZNF8 (UniProt P17098)	1.01 ± 0.025	1.02 ± 0.018	0.975 ± 0.015	0.931 ± 0.022	0.911 ± 0.04	0.909 ± 0.024
SLC9A1 (UniProt P19634)	0.985 ± 0.05	0.994 ± 0.01	0.989 ± 0.046	1 ± 0.038	0.995 ± 0.023	0.988 ± 0.04
GRK5 (UniProt P34947)	1.02 ± 0.018	1.02 ± 0.068	1.04 ± 0.027	1.01 ± 0.025	1.03 ± 0.045	1.03 ± 0.032
UniProt P31948 and related entries	1 ± 0.017	1.05 ± 0.052	0.977 ± 0.031	0.939 ± 0.055	0.956 ± 0.03	0.944 ± 0.03
UniProt P19525 and related entries	1.07 ± 0.012	0.999 ± 0.059	1.07 ± 0.04	1.09 ± 0.038	1.16 ± 0.04	1.07 ± 0.013
CHM (UniProt P24386)	0.97 ± 0.023	0.96 ± 0.048	1.01 ± 0.02	0.961 ± 0.016	0.9506 ± 0.003	0.959 ± 0.04
UniProt P37275-2|P37275-5|P37275	1.03 ± 0.041	1.06 ± 0.067	1.037 ± 0.0025	1 ± 0.024	0.985 ± 0.025	1.04 ± 0.037

Target	NP40-soluble protein abundance (concentration: 1mM)	NP40-soluble protein abundance (concentration: 2mM)	NP40-soluble protein abundance (concentration: 4mM)	NP40-soluble protein abundance (concentration: 6mM)	NP40-soluble protein abundance (concentration: 8mM)	NP40-soluble protein abundance (concentration: 10mM)
ITGA2 (UniProt P17301)	0.9944 ± 0.0014	1.02 ± 0.084	0.988 ± 0.024	1.019 ± 0.0071	1.01 ± 0.025	1.04 ± 0.011
ZNF24 (UniProt P17028)	0.977 ± 0.049	0.978 ± 0.032	0.973 ± 0.06	0.989 ± 0.055	1.01 ± 0.049	1.01 ± 0.028
MCM3 (UniProt P25205)	0.909 ± 0.049	0.883 ± 0.037	0.899 ± 0.075	0.94 ± 0.011	0.943 ± 0.026	0.93 ± 0.079
HMGB2 (UniProt P26583)	1.06 ± 0.14	1.23 ± 0.093	1.04 ± 0.12	1.12 ± 0.073	1.2 ± 0.021	1.19 ± 0.054
UniProt P28065 and related entries	0.967 ± 0.022	0.975 ± 0.042	0.959 ± 0.031	0.955 ± 0.031	0.949 ± 0.033	0.968 ± 0.031
RPL12 (UniProt P30050)	0.987 ± 0.047	0.978 ± 0.025	0.885 ± 0.046	0.902 ± 0.062	0.811 ± 0.048	0.873 ± 0.12
PRKAR1B (UniProt P31321)	1.036 ± 0.0019	1.03 ± 0.054	1.05 ± 0.062	1.01 ± 0.049	1.07 ± 0.052	1.02 ± 0.04
PRDX6 (UniProt P30041)	0.948 ± 0.036	0.91 ± 0.038	0.906 ± 0.015	0.924 ± 0.035	0.948 ± 0.0015	0.87 ± 0.051
UniProt P22307 and related entries	0.989 ± 0.03	1.01 ± 0.034	0.982 ± 0.025	1.02 ± 0.058	1.03 ± 0.049	1.01 ± 0.072
UniProt P22033	1.01 ± 0.0057	0.965 ± 0.07	0.979 ± 0.013	0.964 ± 0.024	0.941 ± 0.01	0.941 ± 0.024
CPOX (UniProt P36551)	0.999 ± 0.034	0.939 ± 0.12	1 ± 0.011	0.973 ± 0.046	1.01 ± 0.037	0.964 ± 0.032
ICAM3 (UniProt P32942)	1.03 ± 0.025	1.09 ± 0.082	1.02 ± 0.035	1.03 ± 0.051	0.969 ± 0.031	1.02 ± 0.085
AGA (UniProt P20933)	1.01 ± 0.04	1.05 ± 0.073	1.06 ± 0.022	1.04 ± 0.011	1.03 ± 0.041	1.02 ± 0.033
CPT2 (UniProt P23786)	0.969 ± 0.025	0.922 ± 0.045	0.956 ± 0.0099	0.936 ± 0.018	0.9376 ± 0.0088	0.916 ± 0.031
P39880-3|Q13948 and related entries (UniProt Q13948+P39880)	1.044 ± 0.0039	1.1 ± 0.077	1.03 ± 0.019	1.02 ± 0.035	0.98 ± 0.018	0.9987 ± 0.0092
ARL2 (UniProt P36404)	0.972 ± 0.036	0.932 ± 0.035	0.963 ± 0.052	1 ± 0.056	0.992 ± 0.061	1.02 ± 0.046
TNFAIP3 (UniProt P21580)	1.02 ± 0.0085	0.9908 ± 0.0076	1.01 ± 0.016	0.995 ± 0.049	0.974 ± 0.028	0.973 ± 0.028
FDFT1 (UniProt P37268)	0.993 ± 0.038	0.952 ± 0.027	0.991 ± 0.024	1.03 ± 0.1	1.05 ± 0.057	1.01 ± 0.078
CMPK1 (UniProt P30085)	0.986 ± 0.064	1.03 ± 0.056	0.927 ± 0.11	0.995 ± 0.023	0.912 ± 0.086	0.957 ± 0.12
WARS (UniProt P23381)	0.987 ± 0.032	0.959 ± 0.065	0.997 ± 0.027	0.995 ± 0.03	1.02 ± 0.024	0.991 ± 0.023

Target	NP40-soluble protein abundance (concentration: 1mM)	NP40-soluble protein abundance (concentration: 2mM)	NP40-soluble protein abundance (concentration: 4mM)	NP40-soluble protein abundance (concentration: 6mM)	NP40-soluble protein abundance (concentration: 8mM)	NP40-soluble protein abundance (concentration: 10mM)
UniProt P28702 and related entries	0.999 ± 0.026	1.02 ± 0.015	1.01 ± 0.019	0.9937 ± 0.0096	0.979 ± 0.025	0.987 ± 0.019
JAK1 (UniProt P23458)	1.18 ± 0.08	1.16 ± 0.11	1.16 ± 0.14	1.11 ± 0.04	1.12 ± 0.084	1.09 ± 0.081
ZNF22 (UniProt P17026)	0.977 ± 0.013	1.02 ± 0.017	0.996 ± 0.033	1.02 ± 0.034	1.02 ± 0.048	1.04 ± 0.047
RPL4 (UniProt P36578)	0.977 ± 0.13	0.988 ± 0.084	0.929 ± 0.17	0.892 ± 0.17	0.751 ± 0.067	0.982 ± 0.29
SPR (UniProt P35270)	1.02 ± 0.015	1.07 ± 0.063	1.02 ± 0.03	0.985 ± 0.01	0.981 ± 0.019	1.01 ± 0.021
PSMB6 (UniProt P28072)	0.934 ± 0.038	0.926 ± 0.061	0.898 ± 0.064	0.917 ± 0.086	0.904 ± 0.094	0.914 ± 0.11
YY1 (UniProt P25490)	1.033 ± 0.0055	1.07 ± 0.043	1.03 ± 0.041	1.07 ± 0.028	1.09 ± 0.06	1.08 ± 0.078
IMPA1 (UniProt P29218)	0.99 ± 0.031	0.96 ± 0.022	0.964 ± 0.038	0.955 ± 0.024	0.942 ± 0.018	0.917 ± 0.048
UniProt P23634 and related entries	0.96 ± 0.042	0.937 ± 0.05	0.957 ± 0.026	0.945 ± 0.015	0.955 ± 0.019	0.959 ± 0.041
PGM1 (UniProt P36871)	0.978 ± 0.042	0.914 ± 0.04	0.939 ± 0.025	0.974 ± 0.04	0.969 ± 0.035	0.935 ± 0.014
MCM4 (UniProt P33991)	0.975 ± 0.036	0.925 ± 0.054	0.943 ± 0.049	0.942 ± 0.043	0.96 ± 0.052	0.933 ± 0.088
DDX6 (UniProt P26196)	0.999 ± 0.034	0.98 ± 0.034	1.023 ± 0.0053	1.05 ± 0.026	1.06 ± 0.021	1.07 ± 0.015
UniProt P29590 and related entries	1.01 ± 0.029	1.05 ± 0.049	0.9911 ± 0.007	0.9989 ± 0.0058	0.968 ± 0.012	0.991 ± 0.013
RPA1 (UniProt P27694)	0.979 ± 0.038	0.943 ± 0.053	0.972 ± 0.017	0.974 ± 0.027	0.997 ± 0.012	0.9792 ± 0.0062
ABCC1 (UniProt P33527)	0.985 ± 0.011	0.968 ± 0.023	0.983 ± 0.011	0.976 ± 0.013	0.965 ± 0.027	0.984 ± 0.031
RAB3A (UniProt P20336)	1.03 ± 0.041	1.02 ± 0.014	1.04 ± 0.036	1 ± 0.012	1 ± 0.016	1.02 ± 0.02
UniProt P25788 and related entries	0.885 ± 0.036	0.857 ± 0.032	0.852 ± 0.074	0.925 ± 0.045	0.904 ± 0.071	0.894 ± 0.11
UniProt P19022 and related entries	0.971 ± 0.013	1.03 ± 0.1	1.02 ± 0.014	0.985 ± 0.038	0.987 ± 0.067	0.965 ± 0.033
UniProt P32321 and related entries	1.01 ± 0.017	0.987 ± 0.04	0.98 ± 0.043	1.01 ± 0.039	1.02 ± 0.041	1.01 ± 0.041
UniProt P23443 and related entries	1.01 ± 0.037	1.04 ± 0.05	0.99 ± 0.039	1 ± 0.0034	0.9531 ± 0.0055	1.01 ± 0.03

Random excerpt: two entries already listed.
Target	NP40-soluble protein abundance (concentration: 1mM)	NP40-soluble protein abundance (concentration: 2mM)	NP40-soluble protein abundance (concentration: 4mM)	NP40-soluble protein abundance (concentration: 6mM)	NP40-soluble protein abundance (concentration: 8mM)	NP40-soluble protein abundance (concentration: 10mM)
FDFT1 (UniProt P37268)	0.993 ± 0.038	0.952 ± 0.027	0.991 ± 0.024	1.03 ± 0.1	1.05 ± 0.057	1.01 ± 0.078
P39880-3|Q13948 and related entries (UniProt Q13948+P39880)	1.044 ± 0.0039	1.1 ± 0.077	1.03 ± 0.019	1.02 ± 0.035	0.98 ± 0.018	0.9987 ± 0.0092
